Sequences of proteins named here, by UniProt entry; tags and fusion partners are left off. A change or cut given only in a name is not applied to a line headed by its entry. A line that says so, or that is headed by a name, gives the form on record, which may keep a tag or linker. Residues count along the entry.
UniProt Q04695: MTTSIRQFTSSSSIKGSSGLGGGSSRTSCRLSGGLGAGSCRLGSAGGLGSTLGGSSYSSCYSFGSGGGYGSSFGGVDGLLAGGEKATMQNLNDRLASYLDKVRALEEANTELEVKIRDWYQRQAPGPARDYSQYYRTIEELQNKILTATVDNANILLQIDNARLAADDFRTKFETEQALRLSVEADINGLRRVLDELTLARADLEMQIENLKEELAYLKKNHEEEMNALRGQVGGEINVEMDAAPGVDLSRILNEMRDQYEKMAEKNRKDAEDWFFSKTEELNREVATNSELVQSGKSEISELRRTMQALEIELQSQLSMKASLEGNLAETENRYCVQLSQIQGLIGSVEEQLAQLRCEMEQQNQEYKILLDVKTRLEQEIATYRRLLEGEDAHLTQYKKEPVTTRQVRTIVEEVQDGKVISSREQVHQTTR
UniProt Q14974: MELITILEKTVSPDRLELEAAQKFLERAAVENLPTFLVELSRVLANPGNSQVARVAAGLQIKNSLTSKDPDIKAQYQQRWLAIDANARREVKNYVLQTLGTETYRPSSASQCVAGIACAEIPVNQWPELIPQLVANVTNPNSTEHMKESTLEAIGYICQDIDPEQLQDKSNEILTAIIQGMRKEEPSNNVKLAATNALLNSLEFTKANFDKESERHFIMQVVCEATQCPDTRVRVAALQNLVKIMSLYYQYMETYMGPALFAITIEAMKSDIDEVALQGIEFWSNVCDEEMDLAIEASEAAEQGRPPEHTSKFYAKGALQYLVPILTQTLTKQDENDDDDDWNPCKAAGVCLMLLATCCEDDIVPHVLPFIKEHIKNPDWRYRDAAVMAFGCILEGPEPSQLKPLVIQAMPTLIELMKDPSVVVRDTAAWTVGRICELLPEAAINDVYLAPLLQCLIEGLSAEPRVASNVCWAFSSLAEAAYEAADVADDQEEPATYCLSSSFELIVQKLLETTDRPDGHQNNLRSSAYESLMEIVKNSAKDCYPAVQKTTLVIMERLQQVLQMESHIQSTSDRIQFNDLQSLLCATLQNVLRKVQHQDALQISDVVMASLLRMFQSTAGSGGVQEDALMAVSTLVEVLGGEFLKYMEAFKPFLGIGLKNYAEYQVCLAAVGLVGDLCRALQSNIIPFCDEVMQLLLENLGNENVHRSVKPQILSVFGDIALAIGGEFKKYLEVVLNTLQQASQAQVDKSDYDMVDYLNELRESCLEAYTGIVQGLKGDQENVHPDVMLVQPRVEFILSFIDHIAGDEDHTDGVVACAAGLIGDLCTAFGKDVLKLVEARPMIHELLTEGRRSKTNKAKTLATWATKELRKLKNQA
lamin A (P02545, residues 1-646): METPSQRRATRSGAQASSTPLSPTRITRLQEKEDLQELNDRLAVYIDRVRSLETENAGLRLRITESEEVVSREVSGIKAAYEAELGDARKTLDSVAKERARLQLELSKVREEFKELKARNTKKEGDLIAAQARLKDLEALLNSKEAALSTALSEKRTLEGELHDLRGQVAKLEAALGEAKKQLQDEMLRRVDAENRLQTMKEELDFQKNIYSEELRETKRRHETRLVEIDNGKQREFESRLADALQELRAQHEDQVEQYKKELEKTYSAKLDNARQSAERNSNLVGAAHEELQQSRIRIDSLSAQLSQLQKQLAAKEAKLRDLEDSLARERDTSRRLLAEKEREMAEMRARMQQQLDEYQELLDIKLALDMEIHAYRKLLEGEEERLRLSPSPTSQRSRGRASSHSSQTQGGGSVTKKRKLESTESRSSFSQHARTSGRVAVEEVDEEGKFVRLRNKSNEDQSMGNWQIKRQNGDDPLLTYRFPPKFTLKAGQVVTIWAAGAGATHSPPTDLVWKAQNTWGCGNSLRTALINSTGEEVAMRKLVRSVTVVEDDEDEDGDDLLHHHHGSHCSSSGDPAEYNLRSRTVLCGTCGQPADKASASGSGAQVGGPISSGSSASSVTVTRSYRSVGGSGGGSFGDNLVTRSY
lamin C (P02545-2, form named): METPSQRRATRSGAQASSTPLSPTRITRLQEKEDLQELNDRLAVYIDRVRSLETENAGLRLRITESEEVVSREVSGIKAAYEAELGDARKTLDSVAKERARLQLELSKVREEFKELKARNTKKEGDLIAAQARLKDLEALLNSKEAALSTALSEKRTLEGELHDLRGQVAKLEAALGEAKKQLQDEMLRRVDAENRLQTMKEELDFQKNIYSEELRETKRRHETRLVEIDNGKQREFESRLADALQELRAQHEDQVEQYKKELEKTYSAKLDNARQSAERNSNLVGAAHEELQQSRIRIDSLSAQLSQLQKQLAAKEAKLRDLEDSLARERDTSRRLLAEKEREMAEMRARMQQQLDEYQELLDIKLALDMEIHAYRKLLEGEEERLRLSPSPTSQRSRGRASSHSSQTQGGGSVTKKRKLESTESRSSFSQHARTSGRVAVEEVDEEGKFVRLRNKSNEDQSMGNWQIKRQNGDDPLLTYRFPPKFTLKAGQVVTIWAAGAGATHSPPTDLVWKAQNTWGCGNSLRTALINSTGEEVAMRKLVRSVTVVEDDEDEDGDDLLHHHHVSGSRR
UniProt O14980: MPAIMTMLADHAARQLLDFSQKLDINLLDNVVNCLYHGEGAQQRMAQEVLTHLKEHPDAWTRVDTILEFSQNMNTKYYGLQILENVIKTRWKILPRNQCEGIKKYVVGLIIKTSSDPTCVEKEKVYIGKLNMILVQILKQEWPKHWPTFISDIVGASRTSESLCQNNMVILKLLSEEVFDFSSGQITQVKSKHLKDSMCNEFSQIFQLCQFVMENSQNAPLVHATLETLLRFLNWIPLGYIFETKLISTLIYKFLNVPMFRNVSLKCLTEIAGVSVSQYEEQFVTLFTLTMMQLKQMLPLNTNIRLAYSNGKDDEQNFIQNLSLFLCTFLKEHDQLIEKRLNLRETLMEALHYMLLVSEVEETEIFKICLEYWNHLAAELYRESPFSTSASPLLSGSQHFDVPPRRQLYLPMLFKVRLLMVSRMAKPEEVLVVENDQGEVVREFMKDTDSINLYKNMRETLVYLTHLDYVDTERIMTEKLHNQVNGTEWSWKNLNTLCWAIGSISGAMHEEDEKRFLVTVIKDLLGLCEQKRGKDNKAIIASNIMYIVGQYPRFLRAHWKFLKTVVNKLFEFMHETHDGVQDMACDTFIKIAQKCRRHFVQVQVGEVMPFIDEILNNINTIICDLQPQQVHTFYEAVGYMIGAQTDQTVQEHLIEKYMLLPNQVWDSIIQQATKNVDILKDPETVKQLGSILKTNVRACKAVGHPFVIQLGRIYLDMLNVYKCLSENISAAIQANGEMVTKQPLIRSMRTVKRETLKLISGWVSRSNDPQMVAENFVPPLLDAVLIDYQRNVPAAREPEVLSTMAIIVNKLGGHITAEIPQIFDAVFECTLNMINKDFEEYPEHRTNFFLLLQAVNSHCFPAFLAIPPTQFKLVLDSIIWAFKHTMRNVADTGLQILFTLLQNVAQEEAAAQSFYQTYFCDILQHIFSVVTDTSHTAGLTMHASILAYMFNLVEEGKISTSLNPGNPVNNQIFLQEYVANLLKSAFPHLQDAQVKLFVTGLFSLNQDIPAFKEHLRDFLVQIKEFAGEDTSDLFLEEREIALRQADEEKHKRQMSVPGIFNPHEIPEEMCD
UniProt P20700: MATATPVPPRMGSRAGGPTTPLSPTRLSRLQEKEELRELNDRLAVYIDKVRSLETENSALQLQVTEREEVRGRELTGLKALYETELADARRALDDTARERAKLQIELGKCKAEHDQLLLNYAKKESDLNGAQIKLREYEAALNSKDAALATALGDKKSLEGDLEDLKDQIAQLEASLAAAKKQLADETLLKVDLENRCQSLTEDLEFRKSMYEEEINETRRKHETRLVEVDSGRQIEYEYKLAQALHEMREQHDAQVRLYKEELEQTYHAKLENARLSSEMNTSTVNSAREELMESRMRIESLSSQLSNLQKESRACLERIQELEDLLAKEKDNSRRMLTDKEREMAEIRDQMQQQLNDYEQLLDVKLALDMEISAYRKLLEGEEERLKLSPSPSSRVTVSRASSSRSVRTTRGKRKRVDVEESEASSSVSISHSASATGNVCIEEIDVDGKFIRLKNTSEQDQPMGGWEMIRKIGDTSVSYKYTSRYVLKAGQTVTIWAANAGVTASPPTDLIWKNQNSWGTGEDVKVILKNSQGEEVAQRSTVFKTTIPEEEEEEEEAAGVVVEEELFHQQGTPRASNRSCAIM

These are yes or no findings as the source states them, for the method shown. In cells and extracts the contact can be indirect. Some results given as binding are weak or reduced against the parent protein; the word gives no strength.
The substances below were run against Keratin 17 (human (endogenous in HeLa and A431)) (UniProt Q04695) (assay: co-IP).
With “karyopherin β1 (from UniProt Q14974 1-876)” the binding was “binds”.
For lamin C (from UniProt P02545-2 1-572), the binding was “no binding”.
exportin-1 (from UniProt O14980 1-1071) was tested, and the binding was “binds”.
lamin B1 (from UniProt P20700 1-586) was tested, and the binding was “binds”.
In the case of lamin A (from UniProt P02545 1-646), the binding is reported as “binds”.

Source: publication doi:10.1101/2020.07.16.206730
